{"source": "PubChem BioAssay AID743121 (NCATS, 2013)", "test": "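Genes whose silencing strengthens cell killing by camptothecin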 (primary screen)", "cells": "MDA-MB-231 cells, a human breast cancer line", "reagents": "single siRNA against human genes, 20 nM siRNA (0.8 pmol per well)", "timing": "120 h (drug added 48 h after transfection, read 72 h later)", "challenge": "camptothecin 20 nM (about EC30) for 72 h; vehicle 0.1% DMSO in parallel plates", "detection": "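Cell viability by ATP luminescence (CellTiter-Glo) as % of non-targeting siRNA wells, and the log2 ratio of viability without drug over viability with camptothecin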", "direction": "log2 vehicle/camptothecin viability: higher = stronger sensitisation to camptothecin", "hit rule": "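Each gene scored by redundant siRNA activity (RSA) over its individual siRNA ratios; a gene is called active at p < 0.001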", "note": "This is a random part of about 26,000 reagents tested. Of all reagents, 167 (0.63%) were called active. 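Calls are per gene from RSA p-values that are not deposited; an individual active-marked siRNA can sensitise only weakly.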 Entries without a mark were called inactive. Reagents against one gene are numbered here. Further read-outs or replicates are left out here. No sequences are given here."}
{"gene":"PEX5 (peroxisomal biogenesis factor 5)","reagent no.":1,"log2 vehicle/camptothecin viability":0.422}
{"gene":"PEX5 (peroxisomal biogenesis factor 5)","reagent no.":2,"log2 vehicle/camptothecin viability":0.0405}
{"gene":"PEX5 (peroxisomal biogenesis factor 5)","reagent no.":3,"log2 vehicle/camptothecin viability":-0.258}
{"gene":"DHFR2 (dihydrofolate reductase 2)","reagent no.":1,"log2 vehicle/camptothecin viability":-0.286}
{"gene":"DHFR2 (dihydrofolate reductase 2)","reagent no.":2,"log2 vehicle/camptothecin viability":0.0568}
{"gene":"DHFR2 (dihydrofolate reductase 2)","reagent no.":3,"log2 vehicle/camptothecin viability":-0.476}
{"gene":"DHFR2 (dihydrofolate reductase 2)","reagent no.":4,"log2 vehicle/camptothecin viability":0.0332}
{"gene":"CLTCL1 (clathrin heavy chain like 1)","reagent no.":1,"log2 vehicle/camptothecin viability":-0.0847}
{"gene":"CLTCL1 (clathrin heavy chain like 1)","reagent no.":2,"log2 vehicle/camptothecin viability":0.174}
{"gene":"CLTCL1 (clathrin heavy chain like 1)","reagent no.":3,"log2 vehicle/camptothecin viability":-0.129}
{"gene":"CLTCL1 (clathrin heavy chain like 1)","reagent no.":4,"log2 vehicle/camptothecin viability":-0.0216}
{"gene":"PELO (pelota mRNA surveillance and ribosome rescue factor)","reagent no.":1,"log2 vehicle/camptothecin viability":-0.399}
{"gene":"PELO (pelota mRNA surveillance and ribosome rescue factor)","reagent no.":2,"log2 vehicle/camptothecin viability":0.0249}
{"gene":"PELO (pelota mRNA surveillance and ribosome rescue factor)","reagent no.":3,"log2 vehicle/camptothecin viability":-0.293}
{"gene":"PELO (pelota mRNA surveillance and ribosome rescue factor)","reagent no.":4,"log2 vehicle/camptothecin viability":-0.294}
{"gene":"CD34 (CD34 molecule)","reagent no.":1,"log2 vehicle/camptothecin viability":0.485}
{"gene":"CD34 (CD34 molecule)","reagent no.":2,"log2 vehicle/camptothecin viability":-0.391}
{"gene":"CD34 (CD34 molecule)","reagent no.":3,"log2 vehicle/camptothecin viability":0.809}
{"gene":"CD34 (CD34 molecule)","reagent no.":4,"log2 vehicle/camptothecin viability":-0.0111}
{"gene":"NFKB1 (nuclear factor kappa B subunit 1)","reagent no.":1,"log2 vehicle/camptothecin viability":0.139}
{"gene":"NFKB1 (nuclear factor kappa B subunit 1)","reagent no.":2,"log2 vehicle/camptothecin viability":0.571}
{"gene":"NFKB1 (nuclear factor kappa B subunit 1)","reagent no.":3,"log2 vehicle/camptothecin viability":0.0805}
{"gene":"BTN1A1 (butyrophilin subfamily 1 member A1)","reagent no.":1,"log2 vehicle/camptothecin viability":0.0145}
{"gene":"BTN1A1 (butyrophilin subfamily 1 member A1)","reagent no.":2,"log2 vehicle/camptothecin viability":-0.249}
{"gene":"BTN1A1 (butyrophilin subfamily 1 member A1)","reagent no.":3,"log2 vehicle/camptothecin viability":-0.0648}
{"gene":"GPR179 (G protein-coupled receptor 179)","reagent no.":1,"log2 vehicle/camptothecin viability":0.137}
{"gene":"GPR179 (G protein-coupled receptor 179)","reagent no.":2,"log2 vehicle/camptothecin viability":0.0831}
{"gene":"GPR179 (G protein-coupled receptor 179)","reagent no.":3,"log2 vehicle/camptothecin viability":-0.491}
{"gene":"GPR179 (G protein-coupled receptor 179)","reagent no.":4,"log2 vehicle/camptothecin viability":0.0155}
{"gene":"POLH (DNA polymerase eta)","reagent no.":1,"log2 vehicle/camptothecin viability":-0.193}
{"gene":"POLH (DNA polymerase eta)","reagent no.":2,"log2 vehicle/camptothecin viability":-0.219}
{"gene":"POLH (DNA polymerase eta)","reagent no.":3,"log2 vehicle/camptothecin viability":-0.333}
{"gene":"PROCR (protein C receptor)","reagent no.":1,"log2 vehicle/camptothecin viability":-0.658}
{"gene":"PROCR (protein C receptor)","reagent no.":2,"log2 vehicle/camptothecin viability":-0.0419}
{"gene":"PROCR (protein C receptor)","reagent no.":3,"log2 vehicle/camptothecin viability":0.261}
{"gene":"SENP6 (SUMO specific peptidase 6)","reagent no.":1,"log2 vehicle/camptothecin viability":-0.26}
{"gene":"SENP6 (SUMO specific peptidase 6)","reagent no.":2,"log2 vehicle/camptothecin viability":-0.211}
{"gene":"SENP6 (SUMO specific peptidase 6)","reagent no.":3,"log2 vehicle/camptothecin viability":0.033}
{"gene":"SENP6 (SUMO specific peptidase 6)","reagent no.":4,"log2 vehicle/camptothecin viability":-0.332}
{"gene":"SRPK3 (SRSF protein kinase 3)","reagent no.":1,"log2 vehicle/camptothecin viability":0.128}
{"gene":"SRPK3 (SRSF protein kinase 3)","reagent no.":2,"log2 vehicle/camptothecin viability":-0.661}
{"gene":"SRPK3 (SRSF protein kinase 3)","reagent no.":3,"log2 vehicle/camptothecin viability":0.191}
{"gene":"SRPK3 (SRSF protein kinase 3)","reagent no.":4,"log2 vehicle/camptothecin viability":-0.388}
{"gene":"SIRT5 (sirtuin 5)","reagent no.":1,"log2 vehicle/camptothecin viability":-0.263}
{"gene":"SIRT5 (sirtuin 5)","reagent no.":2,"log2 vehicle/camptothecin viability":0.147}
{"gene":"SIRT5 (sirtuin 5)","reagent no.":3,"log2 vehicle/camptothecin viability":-0.627}
{"gene":"SIRT5 (sirtuin 5)","reagent no.":4,"log2 vehicle/camptothecin viability":-0.00057}
